# Measured values taken from the supplement of paper PMC6078165.
# Test system: HCC1143
# Experiment: relative JC-1 red fluorescence (viability) vs pre-drug, coculture with fibroblast (fraction); higher = more viable cancer cells
# Conditions: 0.1 µM
# Description: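 JC-1 labelled TNBC cells cocultured 1:1 (1,500 cells each) with CellTrace Violet stained primary or stromal fibroblasts in 384-well plates in FluoroBrite medium, treated with one of 42 anticancer drugs at 0.1, 1, 10 or 100 uM. JC-1 red fluorescence (mitochondrial integrity in cancer cells only) was read by plate reader every 8 h for 72 h. Values are normalised to each well's pre-drug value. The stock of one drug was tenfold lower, so its dose labels may be too high.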
smiles,measurement,setting,value
CC(=O)O[C@H]1C(=O)[C@@]2(C)[C@H]([C@H](OC(=O)c3ccccc3)[C@]3(O)C[C@H](OC(=O)[C@H](O)[C@@H](NC(=O)c4ccccc4)c4ccccc4)C(C)=C1C3(C)C)[C@]1(OC(C)=O)CO[C@@H]1C[C@@H]2O [Paclitaxel],relative JC-1 red fluorescence,"8 h, coculture fibroblast: C12385",0.878 ± 0.016
same,relative JC-1 red fluorescence,"8 h, coculture fibroblast: H6013",0.774 ± 0.01
same,relative JC-1 red fluorescence,"8 h, coculture fibroblast: H6019",0.773 ± 0.0073
same,relative JC-1 red fluorescence,"8 h, coculture fibroblast: H6076",0.811 ± 0.033
same,relative JC-1 red fluorescence,"8 h, coculture fibroblast: H6231",0.832 ± 0.029
same,relative JC-1 red fluorescence,"8 h, coculture fibroblast: HADF",0.738 ± 0.019
same,relative JC-1 red fluorescence,"8 h, coculture fibroblast: HCFa",0.822 ± 0.037
same,relative JC-1 red fluorescence,"8 h, coculture fibroblast: HCPF",0.818 ± 0.0099
same,relative JC-1 red fluorescence,"8 h, coculture fibroblast: HHSteC",0.863 ± 0.053
same,relative JC-1 red fluorescence,"8 h, coculture fibroblast: HMF",0.818 ± 0.015
same,relative JC-1 red fluorescence,"8 h, coculture fibroblast: HPFa",0.90234 ± 0.00028
same,relative JC-1 red fluorescence,"8 h, coculture fibroblast: HUF",0.854 ± 0.029
same,relative JC-1 red fluorescence,"8 h, coculture fibroblast: Hs5",0.872 ± 0.025
same,relative JC-1 red fluorescence,"8 h, coculture fibroblast: Hs27A",0.7159 ± 0.0017
same,relative JC-1 red fluorescence,"8 h, coculture fibroblast: Hs343T",0.821 ± 0.049
same,relative JC-1 red fluorescence,"8 h, coculture fibroblast: WS1",0.842 ± 0.03
same,relative JC-1 red fluorescence,"16 h, coculture fibroblast: C12385",0.765 ± 0.028
same,relative JC-1 red fluorescence,"16 h, coculture fibroblast: H6013",0.641 ± 0.011
same,relative JC-1 red fluorescence,"16 h, coculture fibroblast: H6019",0.65 ± 0.011
same,relative JC-1 red fluorescence,"16 h, coculture fibroblast: H6076",0.711 ± 0.024
same,relative JC-1 red fluorescence,"16 h, coculture fibroblast: H6231",0.821 ± 0.033
same,relative JC-1 red fluorescence,"16 h, coculture fibroblast: HADF",0.631 ± 0.029
same,relative JC-1 red fluorescence,"16 h, coculture fibroblast: HCFa",0.698 ± 0.05
same,relative JC-1 red fluorescence,"16 h, coculture fibroblast: HCPF",0.839 ± 0.053
same,relative JC-1 red fluorescence,"16 h, coculture fibroblast: HHSteC",0.73 ± 0.066
same,relative JC-1 red fluorescence,"16 h, coculture fibroblast: HMF",0.7568 ± 0.0019
same,relative JC-1 red fluorescence,"16 h, coculture fibroblast: HPFa",0.78 ± 0.052
same,relative JC-1 red fluorescence,"16 h, coculture fibroblast: HUF",0.715 ± 0.018
same,relative JC-1 red fluorescence,"16 h, coculture fibroblast: Hs5",0.844 ± 0.073
same,relative JC-1 red fluorescence,"16 h, coculture fibroblast: Hs27A",0.641 ± 0.0087
same,relative JC-1 red fluorescence,"16 h, coculture fibroblast: Hs343T",0.737 ± 0.0081
same,relative JC-1 red fluorescence,"16 h, coculture fibroblast: WS1",0.692 ± 0.018
same,relative JC-1 red fluorescence,"24 h, coculture fibroblast: C12385",0.708 ± 0.063
same,relative JC-1 red fluorescence,"24 h, coculture fibroblast: H6013",0.615 ± 0.012
same,relative JC-1 red fluorescence,"24 h, coculture fibroblast: H6019",0.584 ± 0.0094
same,relative JC-1 red fluorescence,"24 h, coculture fibroblast: H6076",0.6673 ± 0.0049
same,relative JC-1 red fluorescence,"24 h, coculture fibroblast: H6231",0.685 ± 0.055
same,relative JC-1 red fluorescence,"24 h, coculture fibroblast: HADF",0.581 ± 0.017
same,relative JC-1 red fluorescence,"24 h, coculture fibroblast: HCFa",0.652 ± 0.056
same,relative JC-1 red fluorescence,"24 h, coculture fibroblast: HCPF",0.753 ± 0.04
same,relative JC-1 red fluorescence,"24 h, coculture fibroblast: HHSteC",0.666 ± 0.05
same,relative JC-1 red fluorescence,"24 h, coculture fibroblast: HMF",0.676 ± 0.012
same,relative JC-1 red fluorescence,"24 h, coculture fibroblast: HPFa",0.69 ± 0.025
same,relative JC-1 red fluorescence,"24 h, coculture fibroblast: HUF",0.652 ± 0.03
same,relative JC-1 red fluorescence,"24 h, coculture fibroblast: Hs5",0.814 ± 0.055
same,relative JC-1 red fluorescence,"24 h, coculture fibroblast: Hs27A",0.581 ± 0.0076
same,relative JC-1 red fluorescence,"24 h, coculture fibroblast: Hs343T",0.687 ± 0.028
same,relative JC-1 red fluorescence,"24 h, coculture fibroblast: WS1",0.5946 ± 0.0026
same,relative JC-1 red fluorescence,"32 h, coculture fibroblast: C12385",0.64 ± 0.09
same,relative JC-1 red fluorescence,"32 h, coculture fibroblast: H6013",0.6002 ± 0.0043
same,relative JC-1 red fluorescence,"32 h, coculture fibroblast: H6019",0.5113 ± 0.0034
same,relative JC-1 red fluorescence,"32 h, coculture fibroblast: H6076",0.675 ± 0.032
same,relative JC-1 red fluorescence,"32 h, coculture fibroblast: H6231",0.633 ± 0.066
same,relative JC-1 red fluorescence,"32 h, coculture fibroblast: HADF",0.551 ± 0.019
same,relative JC-1 red fluorescence,"32 h, coculture fibroblast: HCFa",0.636 ± 0.052
same,relative JC-1 red fluorescence,"32 h, coculture fibroblast: HCPF",0.6445 ± 0.0045
same,relative JC-1 red fluorescence,"32 h, coculture fibroblast: HHSteC",0.607 ± 0.043
same,relative JC-1 red fluorescence,"32 h, coculture fibroblast: HMF",0.691 ± 0.028
same,relative JC-1 red fluorescence,"32 h, coculture fibroblast: HPFa",0.594 ± 0.0063
same,relative JC-1 red fluorescence,"32 h, coculture fibroblast: HUF",0.57 ± 0.042
same,relative JC-1 red fluorescence,"32 h, coculture fibroblast: Hs5",0.824 ± 0.037
same,relative JC-1 red fluorescence,"32 h, coculture fibroblast: Hs27A",0.615 ± 0.016
same,relative JC-1 red fluorescence,"32 h, coculture fibroblast: Hs343T",0.676 ± 0.061
same,relative JC-1 red fluorescence,"32 h, coculture fibroblast: WS1",0.488 ± 0.018
same,relative JC-1 red fluorescence,"40 h, coculture fibroblast: C12385",0.586 ± 0.1
same,relative JC-1 red fluorescence,"40 h, coculture fibroblast: H6013",0.541 ± 0.0096
same,relative JC-1 red fluorescence,"40 h, coculture fibroblast: H6019",0.45954 ± 0.00028
same,relative JC-1 red fluorescence,"40 h, coculture fibroblast: H6076",0.586 ± 0.016
same,relative JC-1 red fluorescence,"40 h, coculture fibroblast: H6231",0.565 ± 0.057
same,relative JC-1 red fluorescence,"40 h, coculture fibroblast: HADF",0.4469 ± 0.0025
same,relative JC-1 red fluorescence,"40 h, coculture fibroblast: HCFa",0.539 ± 0.051
same,relative JC-1 red fluorescence,"40 h, coculture fibroblast: HCPF",0.646 ± 0.053
same,relative JC-1 red fluorescence,"40 h, coculture fibroblast: HHSteC",0.516 ± 0.045
same,relative JC-1 red fluorescence,"40 h, coculture fibroblast: HMF",0.584 ± 0.028
same,relative JC-1 red fluorescence,"40 h, coculture fibroblast: HPFa",0.502 ± 0.019
same,relative JC-1 red fluorescence,"40 h, coculture fibroblast: HUF",0.507 ± 0.064
same,relative JC-1 red fluorescence,"40 h, coculture fibroblast: Hs5",0.726 ± 0.052
same,relative JC-1 red fluorescence,"40 h, coculture fibroblast: Hs27A",0.521 ± 0.0075
same,relative JC-1 red fluorescence,"40 h, coculture fibroblast: Hs343T",0.57 ± 0.07
same,relative JC-1 red fluorescence,"40 h, coculture fibroblast: WS1",0.408 ± 0.02
same,relative JC-1 red fluorescence,"48 h, coculture fibroblast: C12385",0.551 ± 0.099
same,relative JC-1 red fluorescence,"48 h, coculture fibroblast: H6013",0.55 ± 0.016
same,relative JC-1 red fluorescence,"48 h, coculture fibroblast: H6019",0.4411 ± 0.0037
same,relative JC-1 red fluorescence,"48 h, coculture fibroblast: H6076",0.577 ± 0.027
same,relative JC-1 red fluorescence,"48 h, coculture fibroblast: H6231",0.53 ± 0.068
same,relative JC-1 red fluorescence,"48 h, coculture fibroblast: HADF",0.43 ± 0.0072
same,relative JC-1 red fluorescence,"48 h, coculture fibroblast: HCFa",0.517 ± 0.051
same,relative JC-1 red fluorescence,"48 h, coculture fibroblast: HCPF",0.596 ± 0.048
same,relative JC-1 red fluorescence,"48 h, coculture fibroblast: HHSteC",0.484 ± 0.046
same,relative JC-1 red fluorescence,"48 h, coculture fibroblast: HMF",0.568 ± 0.03
same,relative JC-1 red fluorescence,"48 h, coculture fibroblast: HPFa",0.471 ± 0.035
same,relative JC-1 red fluorescence,"48 h, coculture fibroblast: HUF",0.485 ± 0.069
same,relative JC-1 red fluorescence,"48 h, coculture fibroblast: Hs5",0.688 ± 0.04
same,relative JC-1 red fluorescence,"48 h, coculture fibroblast: Hs27A",0.539 ± 0.01
same,relative JC-1 red fluorescence,"48 h, coculture fibroblast: Hs343T",0.534 ± 0.076
same,relative JC-1 red fluorescence,"48 h, coculture fibroblast: WS1",0.36852 ± 0.00034
same,relative JC-1 red fluorescence,"56 h, coculture fibroblast: C12385",0.527 ± 0.1
same,relative JC-1 red fluorescence,"56 h, coculture fibroblast: H6013",0.524 ± 0.015
same,relative JC-1 red fluorescence,"56 h, coculture fibroblast: H6019",0.4057 ± 0.0034
same,relative JC-1 red fluorescence,"56 h, coculture fibroblast: H6076",0.558 ± 0.031
same,relative JC-1 red fluorescence,"56 h, coculture fibroblast: H6231",0.482 ± 0.072
same,relative JC-1 red fluorescence,"56 h, coculture fibroblast: HADF",0.395 ± 0.0098
same,relative JC-1 red fluorescence,"56 h, coculture fibroblast: HCFa",0.474 ± 0.06
same,relative JC-1 red fluorescence,"56 h, coculture fibroblast: HCPF",0.549 ± 0.056
same,relative JC-1 red fluorescence,"56 h, coculture fibroblast: HHSteC",0.443 ± 0.063
same,relative JC-1 red fluorescence,"56 h, coculture fibroblast: HMF",0.531 ± 0.026
same,relative JC-1 red fluorescence,"56 h, coculture fibroblast: HPFa",0.418 ± 0.034
same,relative JC-1 red fluorescence,"56 h, coculture fibroblast: HUF",0.426 ± 0.073

# Three entries picked at random from those above:
smiles,measurement,setting,value
CC(=O)O[C@H]1C(=O)[C@@]2(C)[C@H]([C@H](OC(=O)c3ccccc3)[C@]3(O)C[C@H](OC(=O)[C@H](O)[C@@H](NC(=O)c4ccccc4)c4ccccc4)C(C)=C1C3(C)C)[C@]1(OC(C)=O)CO[C@@H]1C[C@@H]2O [Paclitaxel],relative JC-1 red fluorescence,"40 h, coculture fibroblast: HCFa",0.539 ± 0.051
same,relative JC-1 red fluorescence,"16 h, coculture fibroblast: H6013",0.641 ± 0.011
same,relative JC-1 red fluorescence,"32 h, coculture fibroblast: H6019",0.5113 ± 0.0034

# ± gives the standard deviation of the averaged measurements. The reference is the same well before dosing, and untreated signal decays as well.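 Fibroblast labels name human fibroblasts: mostly primary ones from tissues such as uterus (C12385, HUF), lung (H6013), bone (Hs27A), adrenal (HADF) and skin (WS1), plus mammary HMF and breast cancer-associated Hs343T. The cancer cells are basal-like or mesenchymal-like triple-negative breast cancer lines. The paper calls a changed response a hit when it shifts by more than 3x the replicate standard deviation. The tissue of the other fibroblasts is not given here.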
